# From the supplement of paper PMC10338343
# ± gives the standard deviation. Some of the results follow. Many entries were measured with a wide error.
# Test system: EfPiwi piRISC loaded with L1MC piRNA (26 nt)
# Test: pre-steady-state target cleavage rate (min^-1); guide: L1MC piRNA 5'p-UAACUAAAUACUAUGCAAGCUGUAGG; MIWI and MILI are mouse PIWI proteins and EfPiwi is from a freshwater sponge; tags in brackets are library labels; higher = faster piRNA-guided slicing of the target
# How it was run: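 At 33 °C in HEPES–potassium acetate buffer, a transcribed, DNA-blocked target RNA library […] was exposed for 0–8 or 0–960 min to 1 nM active affinity-purified piRISC carrying a single synthetic guide, with or without 500 nM GTSF1 partner protein. Uncleaved targets were sequenced and normalised to depth and to weakly complementary targets. With three trials pooled and k3 capped at 0.0001 min^-1, a burst-and-steady-state fit produced the pre-steady-state cleavage rate.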
# [1] = auxiliary factor: 500 nM Ephydatia muelleri Gtsf1
# [2] = auxiliary factor: none (no Gtsf1)
Sequence,pre-steady-state target cleavage rate [1],pre-steady-state target cleavage rate [2]
UCCUGGAUGUCGAACGUUCAGUAUUUAGUUA,0.000158 ± 0.02,0.000238 ± 0.025
UCCUGGUACAGCUUGCAUACUAUAUAGUUA,0.000911 ± 0.0041,0.000363 ± 0.019
UCCUGGUAGAGCUUGCAUAGUAUUUAGUAA,0.00742 ± 0.0038,0.000572 ± 0.018
UCCUGGUACAGCUUGCAUAGUAUUAAGAUA,0.0058 ± 0.0028,0.000706 ± 0.014
UCCUGGAACAGCUAGCAUAGUAUUUAGUUA,0.015 ± 0.0041,0.00128 ± 0.0056
UCCUGGAUGUGCUUGCAUUGUAUUUAGUUA,0.00484 ± 0.0027,0.00246 ± 0.005
UCCUGGUACAGCUUGGAUAGUAUUUAGUUA,0.0049 ± 0.0027,0.000262 ± 0.054
UCCUGGAACAGCUUGCAUAGUAUUUAGGUUA,0.00305 ± 0.0027,0.000848 ± 0.013
UCCUGGAUGUGCUAGCAUAGUAUUUUGUUA,0.000785 ± 0.0043,0.000842 ± 0.012
UCCUGGAUGUCGAUCCAUAGUAUUUACUUA,0.000446 ± 0.013,< 0.0001
UCCUGGAACAGCUUGCAUAGUAUUCUAGUUA,0.00277 ± 0.0018,0.000499 ± 0.017

# Given tab-delimited: part of the list above.
Sequence	pre-steady-state target cleavage rate [1]	pre-steady-state target cleavage rate [2]
UCCUGGAUGUCGAUCCAUAGUAUUUACUUA	0.000446 ± 0.013	< 0.0001
UCCUGGAACAGCUUGCAUAGUAUUCUAGUUA	0.00277 ± 0.0018	0.000499 ± 0.017
